Experimental data from the supplement of paper PMC10849652.
Some of the results follow.

By UniProt entry, the sequences of proteins in these tests, tags left out. Where a name states a change or a piece, a line headed by the entry shows the natural chain unless it says otherwise.
UniProt Q9BZZ5: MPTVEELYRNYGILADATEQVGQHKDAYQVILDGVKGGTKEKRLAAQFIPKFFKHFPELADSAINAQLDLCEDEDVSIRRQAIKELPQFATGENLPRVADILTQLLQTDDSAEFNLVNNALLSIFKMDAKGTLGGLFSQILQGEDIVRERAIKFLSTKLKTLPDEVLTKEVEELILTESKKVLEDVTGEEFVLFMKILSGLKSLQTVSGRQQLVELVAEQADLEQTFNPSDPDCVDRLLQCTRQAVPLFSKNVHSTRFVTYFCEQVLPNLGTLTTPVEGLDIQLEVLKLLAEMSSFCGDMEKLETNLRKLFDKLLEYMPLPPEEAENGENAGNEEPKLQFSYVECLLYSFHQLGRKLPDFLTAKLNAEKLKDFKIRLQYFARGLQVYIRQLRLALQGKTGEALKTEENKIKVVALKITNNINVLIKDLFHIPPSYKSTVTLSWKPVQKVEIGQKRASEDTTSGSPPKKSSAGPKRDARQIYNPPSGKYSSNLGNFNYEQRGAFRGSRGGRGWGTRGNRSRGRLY
UniProt Q7Z2E3: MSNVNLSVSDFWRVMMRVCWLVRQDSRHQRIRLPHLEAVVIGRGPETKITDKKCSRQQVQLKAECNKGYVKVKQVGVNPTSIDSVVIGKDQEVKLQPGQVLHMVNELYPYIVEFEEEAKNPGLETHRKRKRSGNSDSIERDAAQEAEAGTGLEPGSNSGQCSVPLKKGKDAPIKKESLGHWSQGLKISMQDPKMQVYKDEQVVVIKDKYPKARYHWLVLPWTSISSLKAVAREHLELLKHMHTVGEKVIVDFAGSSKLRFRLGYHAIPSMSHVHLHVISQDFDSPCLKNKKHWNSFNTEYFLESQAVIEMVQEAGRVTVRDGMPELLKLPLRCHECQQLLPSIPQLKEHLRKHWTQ
UniProt Q8IW19: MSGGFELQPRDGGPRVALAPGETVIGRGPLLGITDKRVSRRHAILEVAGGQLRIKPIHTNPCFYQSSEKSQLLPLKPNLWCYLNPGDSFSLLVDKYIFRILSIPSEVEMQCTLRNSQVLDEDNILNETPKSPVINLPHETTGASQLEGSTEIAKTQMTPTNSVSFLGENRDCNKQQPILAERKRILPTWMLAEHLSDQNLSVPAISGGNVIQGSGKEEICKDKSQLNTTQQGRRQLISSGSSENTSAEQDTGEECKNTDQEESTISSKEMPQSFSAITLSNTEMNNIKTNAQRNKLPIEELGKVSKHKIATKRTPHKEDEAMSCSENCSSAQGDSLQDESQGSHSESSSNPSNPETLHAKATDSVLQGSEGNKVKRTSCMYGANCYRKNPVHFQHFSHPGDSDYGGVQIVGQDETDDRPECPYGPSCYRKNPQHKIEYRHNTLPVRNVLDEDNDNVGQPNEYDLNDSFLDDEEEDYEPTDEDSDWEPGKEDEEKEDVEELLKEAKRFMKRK
UniProt P53677: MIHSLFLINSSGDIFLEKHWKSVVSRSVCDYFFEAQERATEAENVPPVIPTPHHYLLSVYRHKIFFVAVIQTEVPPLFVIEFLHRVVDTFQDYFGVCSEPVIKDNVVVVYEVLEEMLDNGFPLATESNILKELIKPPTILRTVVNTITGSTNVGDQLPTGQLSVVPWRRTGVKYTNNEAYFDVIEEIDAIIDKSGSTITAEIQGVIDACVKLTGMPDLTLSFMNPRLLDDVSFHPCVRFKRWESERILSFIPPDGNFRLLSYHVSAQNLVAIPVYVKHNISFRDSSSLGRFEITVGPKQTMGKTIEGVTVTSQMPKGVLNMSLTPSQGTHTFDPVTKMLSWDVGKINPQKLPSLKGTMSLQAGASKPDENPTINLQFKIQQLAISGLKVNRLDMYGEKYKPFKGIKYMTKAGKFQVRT
UniProt Q9NRY4: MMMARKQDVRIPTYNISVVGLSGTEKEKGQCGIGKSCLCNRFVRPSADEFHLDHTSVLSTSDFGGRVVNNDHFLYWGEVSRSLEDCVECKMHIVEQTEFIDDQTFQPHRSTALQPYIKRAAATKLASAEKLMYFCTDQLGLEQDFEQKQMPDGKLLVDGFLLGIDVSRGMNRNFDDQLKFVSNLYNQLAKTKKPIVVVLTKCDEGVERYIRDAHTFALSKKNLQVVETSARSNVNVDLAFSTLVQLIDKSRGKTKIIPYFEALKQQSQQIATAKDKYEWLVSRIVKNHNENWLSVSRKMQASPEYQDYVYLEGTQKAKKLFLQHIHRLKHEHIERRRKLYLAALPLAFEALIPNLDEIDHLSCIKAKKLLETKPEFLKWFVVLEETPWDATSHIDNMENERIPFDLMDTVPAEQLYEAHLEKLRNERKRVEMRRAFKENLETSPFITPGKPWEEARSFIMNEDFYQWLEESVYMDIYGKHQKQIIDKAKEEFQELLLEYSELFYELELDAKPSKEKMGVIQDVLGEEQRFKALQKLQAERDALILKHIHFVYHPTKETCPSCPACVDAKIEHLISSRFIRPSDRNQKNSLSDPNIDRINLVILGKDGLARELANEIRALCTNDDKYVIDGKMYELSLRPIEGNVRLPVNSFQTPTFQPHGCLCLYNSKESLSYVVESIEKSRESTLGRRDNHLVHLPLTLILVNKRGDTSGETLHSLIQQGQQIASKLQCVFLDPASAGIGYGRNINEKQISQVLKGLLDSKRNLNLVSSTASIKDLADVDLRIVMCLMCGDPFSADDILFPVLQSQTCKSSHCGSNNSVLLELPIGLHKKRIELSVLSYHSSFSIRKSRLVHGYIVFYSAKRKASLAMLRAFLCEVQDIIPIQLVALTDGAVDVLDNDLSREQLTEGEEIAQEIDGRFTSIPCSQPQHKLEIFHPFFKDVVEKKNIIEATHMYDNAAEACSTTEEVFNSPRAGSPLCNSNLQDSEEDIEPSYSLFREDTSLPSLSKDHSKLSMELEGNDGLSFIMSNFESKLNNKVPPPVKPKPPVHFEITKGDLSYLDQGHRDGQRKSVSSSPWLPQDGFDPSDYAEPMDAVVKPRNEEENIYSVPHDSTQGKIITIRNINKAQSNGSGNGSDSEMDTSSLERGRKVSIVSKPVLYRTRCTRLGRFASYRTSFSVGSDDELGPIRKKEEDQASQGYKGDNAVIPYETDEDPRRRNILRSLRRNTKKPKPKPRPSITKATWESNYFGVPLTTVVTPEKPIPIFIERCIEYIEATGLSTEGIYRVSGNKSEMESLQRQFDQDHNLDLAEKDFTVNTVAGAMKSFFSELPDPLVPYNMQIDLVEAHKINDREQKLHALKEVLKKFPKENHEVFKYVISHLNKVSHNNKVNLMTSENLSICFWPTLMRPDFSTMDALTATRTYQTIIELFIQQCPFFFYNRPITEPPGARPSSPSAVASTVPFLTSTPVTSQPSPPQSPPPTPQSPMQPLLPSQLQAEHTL
UniProt P53367: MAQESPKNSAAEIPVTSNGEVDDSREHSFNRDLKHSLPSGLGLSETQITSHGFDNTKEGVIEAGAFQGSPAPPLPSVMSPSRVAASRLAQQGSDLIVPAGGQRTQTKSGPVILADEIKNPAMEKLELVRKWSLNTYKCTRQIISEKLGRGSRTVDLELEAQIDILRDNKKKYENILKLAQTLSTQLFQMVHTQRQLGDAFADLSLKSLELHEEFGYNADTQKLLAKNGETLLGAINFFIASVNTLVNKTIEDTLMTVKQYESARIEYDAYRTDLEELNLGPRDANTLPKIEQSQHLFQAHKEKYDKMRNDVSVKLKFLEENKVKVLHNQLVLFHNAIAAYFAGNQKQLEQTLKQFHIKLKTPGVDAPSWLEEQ
UniProt P56377: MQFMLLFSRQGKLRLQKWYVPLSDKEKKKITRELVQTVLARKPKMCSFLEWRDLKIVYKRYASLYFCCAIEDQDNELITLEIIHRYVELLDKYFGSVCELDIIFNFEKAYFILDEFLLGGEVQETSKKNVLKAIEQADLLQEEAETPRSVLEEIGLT
UniProt Q92624: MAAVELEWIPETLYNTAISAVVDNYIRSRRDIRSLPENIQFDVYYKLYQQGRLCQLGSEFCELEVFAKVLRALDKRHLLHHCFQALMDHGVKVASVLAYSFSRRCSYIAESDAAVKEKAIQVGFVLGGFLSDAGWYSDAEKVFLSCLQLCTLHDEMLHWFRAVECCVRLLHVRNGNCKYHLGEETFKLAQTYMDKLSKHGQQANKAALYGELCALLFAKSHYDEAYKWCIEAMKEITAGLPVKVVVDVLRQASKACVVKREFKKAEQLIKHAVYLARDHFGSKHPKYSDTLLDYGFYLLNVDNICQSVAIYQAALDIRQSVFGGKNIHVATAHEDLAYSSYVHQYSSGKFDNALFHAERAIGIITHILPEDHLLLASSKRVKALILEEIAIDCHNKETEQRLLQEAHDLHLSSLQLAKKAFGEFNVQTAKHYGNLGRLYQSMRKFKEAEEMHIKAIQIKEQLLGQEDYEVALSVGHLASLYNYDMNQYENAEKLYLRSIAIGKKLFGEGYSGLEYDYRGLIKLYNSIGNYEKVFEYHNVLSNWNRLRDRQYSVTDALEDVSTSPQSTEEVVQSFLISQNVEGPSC
UniProt Q9NUS5: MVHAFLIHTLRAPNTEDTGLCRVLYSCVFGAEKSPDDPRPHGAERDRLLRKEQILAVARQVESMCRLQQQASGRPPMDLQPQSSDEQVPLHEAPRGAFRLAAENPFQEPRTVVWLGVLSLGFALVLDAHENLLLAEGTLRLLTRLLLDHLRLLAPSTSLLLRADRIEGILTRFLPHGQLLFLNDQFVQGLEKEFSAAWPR
UniProt Q8WW43, whole entry, looked up: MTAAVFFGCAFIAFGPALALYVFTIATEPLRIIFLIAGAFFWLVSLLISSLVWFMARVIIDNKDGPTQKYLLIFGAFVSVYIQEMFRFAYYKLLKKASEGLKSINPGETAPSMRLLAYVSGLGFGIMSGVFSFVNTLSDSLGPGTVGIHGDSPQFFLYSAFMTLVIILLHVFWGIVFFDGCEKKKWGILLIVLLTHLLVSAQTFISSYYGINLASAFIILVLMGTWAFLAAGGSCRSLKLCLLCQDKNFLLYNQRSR
UniProt P02655: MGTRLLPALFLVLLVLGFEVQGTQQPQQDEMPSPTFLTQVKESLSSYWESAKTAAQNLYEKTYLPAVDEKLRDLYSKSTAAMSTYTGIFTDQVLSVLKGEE
UniProt Q8NB46: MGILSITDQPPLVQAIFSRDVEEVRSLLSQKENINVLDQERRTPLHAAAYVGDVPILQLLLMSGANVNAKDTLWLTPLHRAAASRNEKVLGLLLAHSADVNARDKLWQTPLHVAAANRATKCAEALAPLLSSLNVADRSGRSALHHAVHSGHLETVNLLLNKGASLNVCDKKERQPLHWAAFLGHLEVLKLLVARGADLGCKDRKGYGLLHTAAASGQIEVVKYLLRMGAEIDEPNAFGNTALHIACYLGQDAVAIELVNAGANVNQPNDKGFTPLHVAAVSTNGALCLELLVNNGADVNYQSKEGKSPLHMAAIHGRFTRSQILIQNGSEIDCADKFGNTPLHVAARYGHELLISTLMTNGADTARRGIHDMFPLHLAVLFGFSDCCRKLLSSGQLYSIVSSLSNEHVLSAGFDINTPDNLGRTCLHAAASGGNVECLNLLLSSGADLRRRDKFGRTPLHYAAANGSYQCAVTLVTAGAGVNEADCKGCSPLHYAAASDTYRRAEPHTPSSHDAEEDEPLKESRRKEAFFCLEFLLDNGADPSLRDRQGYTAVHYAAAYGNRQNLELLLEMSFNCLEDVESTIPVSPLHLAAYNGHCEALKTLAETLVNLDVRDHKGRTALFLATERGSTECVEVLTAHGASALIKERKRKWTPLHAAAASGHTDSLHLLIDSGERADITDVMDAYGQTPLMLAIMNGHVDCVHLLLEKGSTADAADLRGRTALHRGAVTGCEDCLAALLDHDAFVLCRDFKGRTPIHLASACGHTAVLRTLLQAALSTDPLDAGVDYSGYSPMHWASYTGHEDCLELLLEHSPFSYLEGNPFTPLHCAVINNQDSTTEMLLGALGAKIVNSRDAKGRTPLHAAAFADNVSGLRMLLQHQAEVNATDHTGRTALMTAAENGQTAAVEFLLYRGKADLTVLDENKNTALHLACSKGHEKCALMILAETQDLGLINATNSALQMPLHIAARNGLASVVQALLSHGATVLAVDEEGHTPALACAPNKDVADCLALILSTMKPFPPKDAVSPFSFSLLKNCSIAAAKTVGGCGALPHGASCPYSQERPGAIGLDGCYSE
UniProt Q9UH17: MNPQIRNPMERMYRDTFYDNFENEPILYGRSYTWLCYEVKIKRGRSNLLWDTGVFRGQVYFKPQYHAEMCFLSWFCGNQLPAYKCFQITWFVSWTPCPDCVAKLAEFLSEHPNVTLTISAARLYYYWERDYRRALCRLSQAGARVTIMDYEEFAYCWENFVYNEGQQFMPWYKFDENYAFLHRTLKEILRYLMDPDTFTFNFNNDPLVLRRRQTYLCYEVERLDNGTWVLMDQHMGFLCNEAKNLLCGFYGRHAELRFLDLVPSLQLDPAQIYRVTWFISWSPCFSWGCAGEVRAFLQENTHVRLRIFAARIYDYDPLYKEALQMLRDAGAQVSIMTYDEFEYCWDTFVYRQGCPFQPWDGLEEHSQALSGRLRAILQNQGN

Tests used:
Test in all cases: log2 fold change, soluble protein after heating vs DMSO (PISA); higher = thermal stabilisation; K562 cells, 10 uM, 30 min; active = over 0.2 and 3.5 SD of the protein, either way, in both replicates (recomputed)
[1] = compound: CC1=CC=C(C=C1)SC2=C3C=C(SC3=CN=C2)C(=O)N
Outline: (§1)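 K562 cells (2×10^6 cells/mL) were treated with 10 μM compound for 30 min, and aliquots were heated for 3 min over 48°C-58°C. Pooled aliquots were extracted in PBS with 0.5% NP-40 at 4°C, and the supernatant after 21,000xg for 90 min was measured by TMTpro 16plex LC-MS/MS with channel sums equalised. Reported thermal stability, relative to control samples and from duplicates, is a log2 fold change.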

Nexturastat A = compound: CCCCN(Cc1ccc(C(=O)NO)cc1)C(=O)Nc1ccccc1 [Nexturastat A]
Outline: as §1

vemurafenib = compound: CCCS(=O)(=O)Nc1ccc(F)c(C(=O)c2c[nH]c3ncc(-c4ccc(Cl)cc4)cc23)c1F [vemurafenib]
Outline: as §1

[2] = compound: CCCS(=O)(=O)Nc1ccc(F)c(C(=O)c2c[nH]c3ncc(Cl)cc23)c1F
Outline: as §1

volasertib = compound: CC[C@@H]1C(=O)N(C)c2cnc(Nc3ccc(C(=O)N[C@H]4CC[C@H](N5CCN(CC6CC6)CC5)CC4)cc3OC)nc2N1C(C)C [volasertib]
Outline: as §1

[3] = compound: CC[C@H](C)N1C=C(C2=C(C=C(C=C21)C3=CN=C(C=C3)N4CCNCC4)C(=O)NCC5=C(C=C(NC5=O)C)C)C
Outline: as §1

epoxomicin = compound: CC[C@H](C)[C@@H](C(=O)N[C@@H]([C@@H](C)O)C(=O)N[C@@H](CC(C)C)C(=O)[C@]1(CO1)C)NC(=O)[C@H]([C@@H](C)CC)N(C)C(=O)C [epoxomicin]
Outline: as §1

[4] = compound: CN(C)CC(=O)Nc1ccc2[nH]c(=O)c3ccccc3c2c1
Outline: as §1

[5] = compound: CN1C2=C(C3=C1C(=O)N(N=C3)CC4=CC(=CC=C4)N)SC(=C2)S(=O)C
Outline: as §1

[6] = compound: CCCc1cc(C)[nH]c(=O)c1CNC(=O)c1cc(-c2ccnc(N3CCN(C)CC3)c2)cc2c1cnn2C(C)C
Outline: as §1

givinostat = compound: CCN(CC)Cc1ccc2cc(COC(=O)Nc3ccc(C(=O)NO)cc3)ccc2c1 [givinostat]
Outline: as §1

barasertib = compound: CCN(CCCOc1ccc2c(Nc3cc(CC(=O)Nc4cccc(F)c4)[nH]n3)ncnc2c1)CCOP(=O)(O)O [barasertib]
Outline: as §1

[7] = compound: CC[C@@H]1C(=O)N(C)c2cnc(Nc3ccc(C(=O)NC4CCN(C)CC4)cc3OC)nc2N1C1CCCC1
Outline: as §1

[8] = compound: CCn1cc(-c2ccnc3[nH]c(-c4cccc(CN(C)C)c4)cc23)c(-c2ccc(NC(=O)N(C)C)cc2)n1
Outline: as §1

[9] = compound: CN1CCC(CNc2ccc3ncc(-c4cccc(OC(F)(F)F)c4)n3n2)CC1
Outline: as §1

[10] = compound: CC1=C(C=C(C=C1)NC(=O)C2=CC(=CC=C2)C(C)(C)C#N)NC3=CC4=C(C=C3)N=CN(C4=O)C
Outline: as §1

[11] = compound: CC1=NC(=CC=C1)C2=C(N=C(N2)C(C)(C)C)C3=CC4=NC=CN=C4C=C3
Outline: as §1

[12] = compound: CCn1c(C(=O)N(C2CC2)C2CC2)cc2c3c(ncn3C)c(Nc3cc(C)n(C)n3)nc21
Outline: as §1

rosiglitazone = compound: CN(CCOC1=CC=C(C=C1)C[C@H]2C(=O)NC(=O)S2)C3=CC=CC=N3 (racemic) [rosiglitazone]
Outline: as §1

[13] = compound: CC1=C(C=C(C=C1)NC(=O)C2=CC(=CC=C2)N(C)C)NC(=O)C3=CC=C(C=C3)O
Outline: as §1

Measured: log2 fold change

API5 isoform 1 (UniProt Q9BZZ5)
inactive: [1] 0 | Nexturastat A -1.16 | vemurafenib 0.063 | [2] -0.3 | volasertib 0.094 | [3] 0.05 | epoxomicin 0.22 | [4] 0.091 | [5] -0.081

ARHGAP25 isoform 4 (UniProt P42331)
inactive: Nexturastat A 0.078 | vemurafenib 0.086 | [6] -0.052 | givinostat 0.307 | barasertib -0.018 | [7] -0.031 | [3] -0.031 | epoxomicin 0.083 | [8] 0.072 | [4] 0.134 | [5] 0.127 | [9] -0.221

ANKRD13C (UniProt Q8N6S4)
inactive: Nexturastat A 0.214 | vemurafenib 0.13 | [7] -0.191 | epoxomicin 0.019 | [4] 0.001

APTX (UniProt Q7Z2E3)
inactive: [10] 0.269 | [11] -0.157 | Nexturastat A 0.214 | givinostat 0.074 | epoxomicin 0.074 | [12] -0.263 | [8] -0.086 | [5] -0.012 | [9] 0.126

APOL1 isoform 2 (UniProt O14791)
inactive: barasertib -0.097 | [7] 0.295 | [3] -0.388 | rosiglitazone 0.012

APBA2 (UniProt Q99767)
inactive: Nexturastat A 0.013 | epoxomicin 0.074

ANKRD27 (UniProt Q96NW4)
inactive: [13] -0.024 | [11] -0.117

AREG (UniProt P15514)
inactive: [1] -0.057 | [11] 0.1 | [2] -0.083 | givinostat 0.088 | volasertib 0.242 | [12] -0.003 | [5] 0.009

APLF (UniProt Q8IW19)
inactive: [1] 0.097 | [2] -0.153 | volasertib 0.079

AP1G2 (UniProt O75843)
inactive: [13] 0.082 | [1] -0.164 | [2] 0.212 | givinostat 0.065 | volasertib -0.126 | [12] -0.122 | [5] 0.101

AP3M2 (UniProt P53677)
inactive: [11] 0.12 | [6] 0.075 | givinostat 0.198 | barasertib 0.032 | [12] 0.139 | rosiglitazone 0.037

APH1A (UniProt Q96BI3)
inactive: [10] -0.136 | [1] 0.091 | [11] 0.042 | vemurafenib 0.237 | [2] 0.121 | [6] -0.085 | givinostat 0.021 | barasertib 0.002 | [7] -0.023 | volasertib 0.031 | [3] 0.004 | [8] 0.026 | [4] 0.19 | [5] 0.034 | [9] 0.03

ARHGAP35 (UniProt Q9NRY4)
inactive: [13] -0.09 | [1] -0.233 | [11] 0.08 | Nexturastat A 0.206 | vemurafenib -0.001 | [2] 0.056 | [6] 0.104 | givinostat 0.065 | [7] -0.028 | volasertib -0.11 | epoxomicin 0.01 | [12] -0.107 | [8] -0.007 | [4] -0.159 | [5] 0.255 | [9] -0.041

AP1B1 isoform 3 (UniProt Q10567)
inactive: [13] -0.007 | [1] 0.031 | [11] 0.063 | Nexturastat A -0.183 | vemurafenib 0.076 | [2] 0.039 | [6] 0.128 | [7] 0.054 | volasertib -0.11 | [3] -0.005 | epoxomicin 0.186 | [8] 0.042 | [4] 0.027 | [5] 0.12 | [9] -0.188

ARID4B (UniProt Q4LE39)
inactive: [6] 0.102

ARFIP1 isoform 2 (UniProt P53367)
active: [9] -0.512
inactive: [10] -0.106 | [1] 0.051 | [11] 0.031 | Nexturastat A -0.025 | [2] 0.097 | [6] 0.121 | givinostat 0.061 | barasertib 0.019 | volasertib -0.134 | [3] 0.071 | epoxomicin -0.004 | [8] 0.259 | [5] -0.124

APOL2 (UniProt J3KQL8)
inactive: [10] -0.088 | [1] 0 | Nexturastat A 0.123 | vemurafenib 0.021 | [2] -0.075 | [6] 0.058 | givinostat 0.072 | barasertib 0.041 | [7] 0.036 | volasertib -0.056 | [3] -0.017 | epoxomicin 0.088 | [12] -0.017 | [8] 0.041 | [4] 0.03 | rosiglitazone 0.042 | [5] -0.138 | [9] 0.045

AP1S2 (UniProt P56377)
inactive: [10] 0.004 | [1] 0.007 | [11] 0.017 | Nexturastat A -0.121 | [2] 0.087 | [6] 0.004 | barasertib 0.047 | [7] -0.013 | volasertib -0.078 | [3] 0.003 | epoxomicin 0.065 | [8] -0.14 | rosiglitazone 0.037 | [5] 0.126 | [9] -0.006

Copied from the listing (two entries):
ARFIP1 isoform 2 (UniProt P53367)
active: [9] -0.512
inactive: [10] -0.106 | [1] 0.051 | [11] 0.031 | Nexturastat A -0.025 | [2] 0.097 | [6] 0.121 | givinostat 0.061 | barasertib 0.019 | volasertib -0.134 | [3] 0.071 | epoxomicin -0.004 | [8] 0.259 | [5] -0.124

APOL2 (UniProt J3KQL8)
inactive: [10] -0.088 | [1] 0 | Nexturastat A 0.123 | vemurafenib 0.021 | [2] -0.075 | [6] 0.058 | givinostat 0.072 | barasertib 0.041 | [7] 0.036 | volasertib -0.056 | [3] -0.017 | epoxomicin 0.088 | [12] -0.017 | [8] 0.041 | [4] 0.03 | rosiglitazone 0.042 | [5] -0.138 | [9] 0.045

Carrying on.

ANKRD36 (UniProt A6QL64)
inactive: [10] -0.383 | Nexturastat A 0.067 | vemurafenib 0.008 | [6] 0.035 | [7] 0.089 | epoxomicin 0.14 | [8] 0.036 | [4] -0.28 | [5] 0.293 | [9] -0.528

APC (UniProt P25054)
inactive: [13] -0.004 | [11] -0.449 | Nexturastat A 0.054 | vemurafenib -0.018 | givinostat 0.017 | barasertib -0.104 | [7] 0.186 | epoxomicin -0.06 | [12] 0.077 | [4] 0.047 | rosiglitazone -0.143 | [5] 0.12

ANKH (UniProt Q9HCJ1)
inactive: [13] -0.239 | [1] -0.171 | [11] -0.166 | [2] -0.209 | givinostat -0.088 | [7] 0.198 | volasertib 0.19 | [3] -0.297 | [12] 0.026 | [8] 0.044 | [5] -0.098 | [9] -0.366

ANKIB1 (UniProt Q9P2G1)
inactive: [3] 0.164

APPBP2 (UniProt Q92624)
inactive: [13] -0.08 | [1] -0.245 | [11] -0.025 | [2] 0.047 | barasertib 0.235 | volasertib -0.059 | [3] -0.001 | [8] -0.165 | rosiglitazone 0.039 | [5] 0.176 | [9] -0.119

ANKLE2 (UniProt Q86XL3)
inactive: [1] -0.048 | [11] -0.064 | vemurafenib 0.029 | [2] -0.088 | volasertib -0.009 | [4] 0.005

AP5S1 (UniProt Q9NUS5)
inactive: [6] 0.045 | givinostat -0.195 | [3] 0.08 | [12] -0.085

ANXA2 (UniProt H0YMT9)
inactive: [11] 0.041 | Nexturastat A 0.179 | barasertib -0.242 | epoxomicin -0.132 | rosiglitazone 0.289 | [5] -0.057

APOD (UniProt P05090)
inactive: [10] 0.054 | [1] 0.74 | vemurafenib -0.09 | [2] -0.117 | [6] -0.153 | givinostat -0.155 | [7] -0.038 | volasertib -0.177 | [3] 0.139 | [12] -0.057 | [4] 0.678

ANKRD16 (UniProt Q6P6B7)
inactive: [10] -0.001 | [1] 0.085 | Nexturastat A 0.256 | vemurafenib 0.051 | [2] -0.173 | [6] -0.051 | givinostat 0.129 | barasertib -0.173 | volasertib -0.019 | epoxomicin 0.012 | [12] -0.053 | [4] -0.083 | rosiglitazone -0.059

APH1B (UniProt Q8WW43)
inactive: [10] -0.241 | [8] 0.036 | [9] 0.034

ARHGEF10 (UniProt O15013)
inactive: vemurafenib -0.111 | barasertib 0.039 | [4] -0.225 | rosiglitazone -0.008

AP2M1 (UniProt C9JTK4)
inactive: [10] -0.04 | [11] -0.033 | Nexturastat A 0.009 | vemurafenib -0.262 | [6] -0.172 | barasertib -0.079 | [7] 0.03 | [3] -0.051 | epoxomicin 0.027 | [4] -0.243 | [5] -0.049

ANGEL1 (UniProt Q9UNK9)
active: [11] 0.591
inactive: [13] -0.121 | vemurafenib -0.079 | barasertib 0.033 | [4] 0.038

APOBEC3F (UniProt Q8IUX4)
inactive: [13] -0.079 | [1] -0.121 | [11] -0.235 | Nexturastat A 0.421 | [2] 0.074 | barasertib -0.249 | [7] 0.101 | volasertib 0.154 | epoxomicin -0.327 | rosiglitazone -0.008 | [5] 0.133

APOC2 (UniProt P02655)
inactive: [11] -0.043 | vemurafenib 0.08 | [6] -0.089 | [3] -0.056 | [8] -0.404 | [4] -0.045 | [5] 0.095 | [9] 0.018

ANKRD52 (UniProt Q8NB46)
inactive: [13] -0.075 | [11] 0.133 | Nexturastat A 0.041 | vemurafenib 0.215 | [6] 0.093 | givinostat 0.061 | [7] -0.198 | [3] 0.135 | epoxomicin 0.096 | [12] -0.018 | [4] -0.181 | [5] -0.11

APOBEC3B (UniProt Q9UH17)
inactive: [13] 0.072 | [11] -0.479 | [3] -0.233

ARID1B isoform 3 (UniProt Q8NFD5)
inactive: [13] -0.17 | barasertib 0.043 | rosiglitazone -0.093

ARHGAP5 (UniProt Q13017)
inactive: [13] 0.186 | Nexturastat A -0.052 | givinostat 0.176 | barasertib 0.115 | [7] -0.149 | epoxomicin 0.027 | [12] -0.126 | rosiglitazone 0.048

APOA4 (UniProt P06727)
inactive: [13] 0.142 | Nexturastat A 0.029 | vemurafenib 0.23 | [6] -0.272 | barasertib 0.126 | [3] 0.014 | epoxomicin -0.066 | [4] -0.053 | rosiglitazone 0.039
